Measurements taken from PMC6298254.

Biological target: T1, A20 (bait protein in the iMixPro AP-MS approach) (UniProt P21580)
T1 sequence: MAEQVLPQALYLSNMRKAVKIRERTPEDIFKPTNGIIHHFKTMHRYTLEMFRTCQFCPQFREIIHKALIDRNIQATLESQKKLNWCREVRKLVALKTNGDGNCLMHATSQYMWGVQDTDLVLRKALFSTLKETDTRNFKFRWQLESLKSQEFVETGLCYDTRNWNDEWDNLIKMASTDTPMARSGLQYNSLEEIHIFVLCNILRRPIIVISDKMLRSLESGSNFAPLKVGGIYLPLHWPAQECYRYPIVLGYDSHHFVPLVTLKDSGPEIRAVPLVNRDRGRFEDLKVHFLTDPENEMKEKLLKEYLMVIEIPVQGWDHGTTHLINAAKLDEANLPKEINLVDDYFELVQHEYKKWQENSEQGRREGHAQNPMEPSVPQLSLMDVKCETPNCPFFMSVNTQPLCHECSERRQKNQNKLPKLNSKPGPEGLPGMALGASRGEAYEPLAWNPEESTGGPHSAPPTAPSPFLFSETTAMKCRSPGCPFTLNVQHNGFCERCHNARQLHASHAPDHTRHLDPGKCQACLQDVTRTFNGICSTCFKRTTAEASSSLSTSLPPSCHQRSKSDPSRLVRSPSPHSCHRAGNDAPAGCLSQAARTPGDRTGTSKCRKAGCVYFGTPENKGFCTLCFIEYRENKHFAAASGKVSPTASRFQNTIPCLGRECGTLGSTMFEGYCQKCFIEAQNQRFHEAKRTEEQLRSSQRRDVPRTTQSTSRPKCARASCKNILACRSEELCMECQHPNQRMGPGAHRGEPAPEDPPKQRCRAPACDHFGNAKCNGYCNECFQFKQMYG
Assay: affinity purification with mass spectrometry; iMixPro (intelligent mixing of proteomes) AP-MS with A20 as bait protein; methods not given in this paper (ref. 21)

binding: binds
B1: NDP52 (Nuclear domain 10 protein 52 or CALCOCO2) (protein, UniProt Q13137 1-446)
chain: MEETIKDPPTSAVLLDHCHFSQVIFNSVEKFYIPGGDVTCHYTFTQHFIPRRKDWIGIFRVGWKTTREYYTFMWVTLPIDLNNKSAKQQEVQFKAYYLPKDDEYYQFCYVDEDGVVRGASIPFQFRPENEEDILVVTTQGEVEEIEQHNKELCKENQELKDSCISLQKQNSDMQAELQKKQEELETLQSINKKLELKVKEQKDYWETELLQLKEQNQKMSSENEKMGIRVDQLQAQLSTQEKEMEKLVQGDQDKTEQLEQLKKENDHLFLSLTEQRKDQKKLEQTVEQMKQNETTAMKKQQELMDENFDLSKRLSENEIICNALQRQKERLEGENDLLKRENSRLLSYMGLDFNSLPYQVPTSDEGGARQNPGLAYGNPYSGIQESSSPSPLSIKKCPICKADDICDHTLEQQQMQPLCFNCPICDKIFPATEKQIFEDHVFCHSL

Results are given in words; binding and its absence hold for the method and conditions named. In cells and extracts the contact can be indirect. Here binding means that the protein was enriched with, or labelled near, the bait; the list need not be complete.
